Test results taken from the supplement of paper PMC11006884.
Only a part is listed here, and it is no random draw.

Amino acid sequences for entries named in this document (tags omitted). A change or cut given only in a name is not applied to a line headed by its entry.
UniProt O95336: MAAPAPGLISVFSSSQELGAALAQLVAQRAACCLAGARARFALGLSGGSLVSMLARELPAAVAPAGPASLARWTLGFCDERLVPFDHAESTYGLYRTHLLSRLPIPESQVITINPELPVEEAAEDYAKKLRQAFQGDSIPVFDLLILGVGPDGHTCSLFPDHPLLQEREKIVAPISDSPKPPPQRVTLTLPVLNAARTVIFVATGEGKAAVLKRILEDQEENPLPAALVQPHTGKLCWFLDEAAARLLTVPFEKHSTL
UniProt P07339: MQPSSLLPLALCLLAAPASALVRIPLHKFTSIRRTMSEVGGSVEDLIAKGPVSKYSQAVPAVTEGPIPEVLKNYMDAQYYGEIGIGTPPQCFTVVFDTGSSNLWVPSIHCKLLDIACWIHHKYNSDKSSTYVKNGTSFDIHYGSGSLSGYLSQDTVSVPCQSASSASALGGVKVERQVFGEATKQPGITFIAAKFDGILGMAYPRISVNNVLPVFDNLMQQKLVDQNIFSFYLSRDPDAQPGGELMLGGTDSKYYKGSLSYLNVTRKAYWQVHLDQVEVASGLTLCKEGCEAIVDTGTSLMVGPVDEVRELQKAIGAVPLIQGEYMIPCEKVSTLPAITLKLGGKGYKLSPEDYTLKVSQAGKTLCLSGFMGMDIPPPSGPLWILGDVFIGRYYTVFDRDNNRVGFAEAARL
UniProt P07437, whole entry, looked up: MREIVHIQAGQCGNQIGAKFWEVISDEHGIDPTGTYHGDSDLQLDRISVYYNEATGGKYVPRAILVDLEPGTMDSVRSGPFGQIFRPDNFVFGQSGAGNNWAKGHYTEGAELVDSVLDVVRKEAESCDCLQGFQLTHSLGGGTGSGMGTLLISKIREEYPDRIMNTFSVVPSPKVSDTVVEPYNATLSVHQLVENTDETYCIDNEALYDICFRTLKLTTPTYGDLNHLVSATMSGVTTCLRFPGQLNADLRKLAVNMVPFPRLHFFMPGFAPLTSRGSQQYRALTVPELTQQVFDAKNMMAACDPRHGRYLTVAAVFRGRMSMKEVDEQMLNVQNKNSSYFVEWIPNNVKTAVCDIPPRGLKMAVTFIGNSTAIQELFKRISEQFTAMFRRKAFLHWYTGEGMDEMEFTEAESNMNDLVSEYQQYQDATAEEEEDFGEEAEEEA
UniProt O95602, whole entry, looked up: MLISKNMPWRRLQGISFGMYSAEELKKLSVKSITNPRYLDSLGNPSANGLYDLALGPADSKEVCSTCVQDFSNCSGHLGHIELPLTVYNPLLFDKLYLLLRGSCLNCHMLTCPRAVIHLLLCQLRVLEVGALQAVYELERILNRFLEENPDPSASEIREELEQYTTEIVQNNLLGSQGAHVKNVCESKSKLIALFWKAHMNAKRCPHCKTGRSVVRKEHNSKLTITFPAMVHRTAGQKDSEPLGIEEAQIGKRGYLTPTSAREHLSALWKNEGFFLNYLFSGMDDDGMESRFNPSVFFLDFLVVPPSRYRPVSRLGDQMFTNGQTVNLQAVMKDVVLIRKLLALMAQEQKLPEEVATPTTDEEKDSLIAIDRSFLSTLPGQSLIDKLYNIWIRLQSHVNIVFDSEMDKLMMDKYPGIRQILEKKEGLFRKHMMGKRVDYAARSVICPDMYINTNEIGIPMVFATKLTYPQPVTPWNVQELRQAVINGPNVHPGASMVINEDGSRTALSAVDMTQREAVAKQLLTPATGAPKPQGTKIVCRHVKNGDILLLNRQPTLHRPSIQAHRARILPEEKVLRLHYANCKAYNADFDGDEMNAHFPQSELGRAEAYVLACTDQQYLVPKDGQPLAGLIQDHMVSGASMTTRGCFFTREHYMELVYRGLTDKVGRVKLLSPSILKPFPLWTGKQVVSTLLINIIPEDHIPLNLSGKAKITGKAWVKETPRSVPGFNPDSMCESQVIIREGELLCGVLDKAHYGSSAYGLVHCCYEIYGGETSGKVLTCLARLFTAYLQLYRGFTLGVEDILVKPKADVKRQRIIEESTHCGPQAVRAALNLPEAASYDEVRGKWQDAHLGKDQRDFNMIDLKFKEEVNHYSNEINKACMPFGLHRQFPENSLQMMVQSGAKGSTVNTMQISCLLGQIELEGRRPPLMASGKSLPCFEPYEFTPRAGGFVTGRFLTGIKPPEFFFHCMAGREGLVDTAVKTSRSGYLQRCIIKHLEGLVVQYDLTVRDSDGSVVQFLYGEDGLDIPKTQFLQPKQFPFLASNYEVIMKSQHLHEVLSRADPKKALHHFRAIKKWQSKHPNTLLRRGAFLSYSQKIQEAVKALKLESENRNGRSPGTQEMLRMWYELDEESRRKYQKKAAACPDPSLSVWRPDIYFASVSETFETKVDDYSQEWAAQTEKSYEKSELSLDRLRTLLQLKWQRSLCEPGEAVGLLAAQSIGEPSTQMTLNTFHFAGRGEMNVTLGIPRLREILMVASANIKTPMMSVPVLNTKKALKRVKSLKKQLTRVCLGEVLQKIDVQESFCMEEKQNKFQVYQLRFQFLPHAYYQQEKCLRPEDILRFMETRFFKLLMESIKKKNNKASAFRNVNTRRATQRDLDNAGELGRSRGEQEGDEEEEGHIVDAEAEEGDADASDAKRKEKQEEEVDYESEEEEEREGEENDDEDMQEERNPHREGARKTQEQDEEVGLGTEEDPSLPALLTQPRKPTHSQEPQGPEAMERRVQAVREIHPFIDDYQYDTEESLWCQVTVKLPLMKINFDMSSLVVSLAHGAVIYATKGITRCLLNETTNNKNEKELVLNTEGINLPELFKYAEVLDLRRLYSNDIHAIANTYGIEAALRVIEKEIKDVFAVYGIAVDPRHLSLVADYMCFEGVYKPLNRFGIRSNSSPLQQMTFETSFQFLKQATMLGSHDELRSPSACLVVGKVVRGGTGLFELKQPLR
UniProt P04818: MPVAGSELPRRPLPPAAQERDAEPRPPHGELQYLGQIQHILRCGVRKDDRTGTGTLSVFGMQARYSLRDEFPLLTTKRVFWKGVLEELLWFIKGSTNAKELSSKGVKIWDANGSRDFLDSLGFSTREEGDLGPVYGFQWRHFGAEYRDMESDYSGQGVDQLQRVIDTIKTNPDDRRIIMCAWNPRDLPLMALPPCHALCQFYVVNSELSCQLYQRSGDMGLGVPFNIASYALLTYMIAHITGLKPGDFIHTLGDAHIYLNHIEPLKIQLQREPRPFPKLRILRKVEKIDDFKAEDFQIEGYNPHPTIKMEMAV
UniProt P04632: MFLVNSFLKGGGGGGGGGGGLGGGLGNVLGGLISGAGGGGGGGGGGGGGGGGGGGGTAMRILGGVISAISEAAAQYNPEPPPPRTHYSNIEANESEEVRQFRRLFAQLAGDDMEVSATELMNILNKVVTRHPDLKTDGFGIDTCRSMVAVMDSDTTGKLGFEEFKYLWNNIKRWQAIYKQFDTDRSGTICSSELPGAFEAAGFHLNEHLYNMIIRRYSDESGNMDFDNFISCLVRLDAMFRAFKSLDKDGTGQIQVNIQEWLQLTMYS
UniProt O95163: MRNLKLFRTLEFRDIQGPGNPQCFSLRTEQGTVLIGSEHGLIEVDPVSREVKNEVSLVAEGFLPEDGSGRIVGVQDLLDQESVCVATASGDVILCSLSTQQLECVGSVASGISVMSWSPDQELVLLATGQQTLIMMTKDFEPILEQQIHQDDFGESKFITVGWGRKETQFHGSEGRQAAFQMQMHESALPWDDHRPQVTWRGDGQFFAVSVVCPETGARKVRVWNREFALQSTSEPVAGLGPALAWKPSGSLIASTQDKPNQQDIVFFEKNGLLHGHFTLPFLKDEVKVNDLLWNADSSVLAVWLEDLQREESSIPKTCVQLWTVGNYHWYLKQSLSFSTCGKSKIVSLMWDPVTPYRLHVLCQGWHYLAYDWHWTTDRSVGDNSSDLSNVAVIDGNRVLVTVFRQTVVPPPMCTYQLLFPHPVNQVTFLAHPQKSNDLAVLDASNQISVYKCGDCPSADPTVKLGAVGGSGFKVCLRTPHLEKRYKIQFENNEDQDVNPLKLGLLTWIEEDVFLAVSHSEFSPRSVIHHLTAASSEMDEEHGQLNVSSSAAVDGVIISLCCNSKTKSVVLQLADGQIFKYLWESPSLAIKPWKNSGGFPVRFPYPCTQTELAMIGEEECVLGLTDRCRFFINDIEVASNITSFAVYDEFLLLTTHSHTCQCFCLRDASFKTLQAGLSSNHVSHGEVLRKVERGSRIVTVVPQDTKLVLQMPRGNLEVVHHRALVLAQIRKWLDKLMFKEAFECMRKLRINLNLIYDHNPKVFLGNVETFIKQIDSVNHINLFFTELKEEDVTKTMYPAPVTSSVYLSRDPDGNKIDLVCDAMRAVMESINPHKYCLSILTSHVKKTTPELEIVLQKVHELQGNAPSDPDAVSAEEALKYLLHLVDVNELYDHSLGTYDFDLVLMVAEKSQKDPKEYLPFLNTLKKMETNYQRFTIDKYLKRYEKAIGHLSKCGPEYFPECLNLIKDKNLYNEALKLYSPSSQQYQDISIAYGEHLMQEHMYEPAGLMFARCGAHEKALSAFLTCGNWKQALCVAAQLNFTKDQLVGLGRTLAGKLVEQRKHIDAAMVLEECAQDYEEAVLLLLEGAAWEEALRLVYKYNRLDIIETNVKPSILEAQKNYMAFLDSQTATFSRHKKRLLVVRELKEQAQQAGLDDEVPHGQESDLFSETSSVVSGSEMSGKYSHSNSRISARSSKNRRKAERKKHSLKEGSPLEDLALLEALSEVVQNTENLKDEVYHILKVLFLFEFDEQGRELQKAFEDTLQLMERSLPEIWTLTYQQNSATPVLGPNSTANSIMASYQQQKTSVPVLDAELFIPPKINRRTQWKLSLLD
UniProt O94966: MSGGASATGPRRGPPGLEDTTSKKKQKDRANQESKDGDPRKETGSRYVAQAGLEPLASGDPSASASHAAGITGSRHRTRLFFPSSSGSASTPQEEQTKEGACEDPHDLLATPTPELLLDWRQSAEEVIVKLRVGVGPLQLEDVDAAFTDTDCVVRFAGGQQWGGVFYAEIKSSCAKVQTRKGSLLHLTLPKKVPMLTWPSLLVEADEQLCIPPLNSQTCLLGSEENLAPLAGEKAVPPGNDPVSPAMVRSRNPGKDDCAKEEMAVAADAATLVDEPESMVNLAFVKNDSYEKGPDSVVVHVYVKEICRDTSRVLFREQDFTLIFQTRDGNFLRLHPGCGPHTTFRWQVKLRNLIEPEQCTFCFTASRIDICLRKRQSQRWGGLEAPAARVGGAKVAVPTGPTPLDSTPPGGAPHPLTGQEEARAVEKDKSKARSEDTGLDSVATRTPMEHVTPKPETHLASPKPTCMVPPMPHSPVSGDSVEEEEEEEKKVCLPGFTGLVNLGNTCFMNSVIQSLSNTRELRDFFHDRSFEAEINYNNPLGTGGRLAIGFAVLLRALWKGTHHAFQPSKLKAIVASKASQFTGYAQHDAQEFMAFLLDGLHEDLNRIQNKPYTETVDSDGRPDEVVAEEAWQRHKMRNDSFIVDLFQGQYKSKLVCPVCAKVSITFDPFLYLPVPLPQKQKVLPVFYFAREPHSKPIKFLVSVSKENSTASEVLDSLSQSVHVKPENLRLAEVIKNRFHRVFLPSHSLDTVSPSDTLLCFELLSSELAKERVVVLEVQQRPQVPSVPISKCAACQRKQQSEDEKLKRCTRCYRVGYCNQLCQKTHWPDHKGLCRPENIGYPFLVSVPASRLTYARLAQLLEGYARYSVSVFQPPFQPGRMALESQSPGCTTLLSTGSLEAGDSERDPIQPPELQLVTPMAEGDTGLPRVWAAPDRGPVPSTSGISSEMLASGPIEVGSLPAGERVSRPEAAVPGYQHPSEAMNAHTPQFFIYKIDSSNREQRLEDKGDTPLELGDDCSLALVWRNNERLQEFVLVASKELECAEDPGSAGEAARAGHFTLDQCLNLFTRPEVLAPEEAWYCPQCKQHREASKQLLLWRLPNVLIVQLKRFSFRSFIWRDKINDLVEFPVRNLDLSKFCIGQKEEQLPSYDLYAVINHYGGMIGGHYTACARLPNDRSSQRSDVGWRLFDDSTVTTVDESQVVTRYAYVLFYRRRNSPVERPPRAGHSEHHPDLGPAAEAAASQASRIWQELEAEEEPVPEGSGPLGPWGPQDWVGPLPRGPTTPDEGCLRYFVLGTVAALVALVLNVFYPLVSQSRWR
UniProt P01106: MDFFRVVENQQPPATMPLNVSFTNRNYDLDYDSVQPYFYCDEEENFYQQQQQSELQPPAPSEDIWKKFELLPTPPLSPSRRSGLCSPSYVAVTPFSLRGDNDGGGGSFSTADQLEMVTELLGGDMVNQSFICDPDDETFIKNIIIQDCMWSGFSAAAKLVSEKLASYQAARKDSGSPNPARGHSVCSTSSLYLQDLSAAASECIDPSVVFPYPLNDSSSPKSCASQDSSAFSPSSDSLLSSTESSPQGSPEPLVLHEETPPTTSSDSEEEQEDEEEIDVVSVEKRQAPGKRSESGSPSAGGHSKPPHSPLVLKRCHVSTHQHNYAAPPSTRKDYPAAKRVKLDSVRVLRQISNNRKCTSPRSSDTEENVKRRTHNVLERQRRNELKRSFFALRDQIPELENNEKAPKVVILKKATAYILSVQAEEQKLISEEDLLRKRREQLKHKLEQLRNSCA

Compound: COC(=O)C#Cc1ccccc1 [methyl 3-phenylpropiolate]
Assay: log2 ratio of iodoacetamide-alkyne labeling of the cysteine site, DMSO over compound (competition); higher = stronger covalent engagement of the cysteine by the compound, active = 1 or more
Settings: 500 µM; treatment time 1 h; system: HEK293T cell lysate
How it was run: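 After 1 h at ambient temperature with vehicle or electrophile (500 µM), HEK293T lysate (2 mg/mL) was labelled for 1 h with iodoacetamide alkyne and clicked to sCIP-TMT reagents. Pooled samples were trypsin-digested overnight at 37 °C, streptavidin-enriched, acid-eluted and analysed by Orbitrap Eclipse LC-MS/MS with FAIMS, then quantified in FragPipe over three replicates with duplicate channels. A cysteine's log2 competition ratio is its mean control-channel over mean compound-channel reporter intensity. Cysteines quantified in only one replicate were not included.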

log2 ratio of iodoacetamide-alkyne labeling, inactive:
TTC4 C110 (UniProt O95801) 0.0895
PGLS C156 (UniProt O95336) 0.732
CTSD C117 (UniProt P07339) 0.747
ACSL3 C652 (UniProt O95573) -0.112
OAT C150 (UniProt P04181) 0.262
SEC31A C173 (UniProt O94979) 0.494
TP53 C182 (UniProt P04637) 0.152
UniProt P07437_C211 0.276
UBE4B C1129 (UniProt O95155) -0.00716
KBTBD11 C257 (UniProt O94819) -0.112
PGLS C32 (UniProt O95336) 0.724
CNOT4 C175 (UniProt O95628) 0.0314
HPRT1 C206 (UniProt P00492) 0.0837
UniProt O95232_C58 0.0546
LDHB C164 (UniProt P07195) 0.405
CPSF4 C41 (UniProt O95639) 0.426
UniProt O94813_C907 0.637
GAPDH C152 (UniProt P04406) 0.177
AP2A1 C492 (UniProt O95782) 0.467
POLR1A C446 (UniProt O95602) 0.0221
TYMS C180 (UniProt P04818) -0.0703
NPM1 C275 (UniProt P06748) -0.0338
CAPNS1 C190 (UniProt P04632) 0.0116
MAP4K4 C202 (UniProt O95819) 0.624
NR3C1 C481 (UniProt P04150) 0.314
UniProt O95232_C40 -0.0395
TTC4 C63 (UniProt O95801) 0.09
UniProt O95163_C23 0.013
ZRANB2 C85 (UniProt O95218) 0.263
HERC2 C1005 (UniProt O95714) 0.239
UniProt P00491_C206 0.134
POLR1A C937 (UniProt O95602) 0.116
BPNT1 C42 (UniProt O95861) 0.266
USP19 C833 (UniProt O94966) 0.0294
MYC C70 (UniProt P01106) 0.857
PRPF6 C550 (UniProt O94906) 0.0878
TK1 C230 (UniProt P04183) 0.335
KIF4A C1224 (UniProt O95239) 0.387

As a working copy, part of the list above:
log2 ratio of iodoacetamide-alkyne labeling, inactive:
CTSD C117 (UniProt P07339) 0.747
ACSL3 C652 (UniProt O95573) -0.112
OAT C150 (UniProt P04181) 0.262
SEC31A C173 (UniProt O94979) 0.494
TP53 C182 (UniProt P04637) 0.152
UniProt P07437_C211 0.276
UBE4B C1129 (UniProt O95155) -0.00716
